Some of these results come from one statement about several compounds together.
Assay: Simulated metabolic test of compounds in Human Intestine S9
Assay type: in vitro ADME
Settings: HIS9

Row | Structure (SMILES) | Time within which almost all was converted to parent drug HMS5552
1 | CC(C)C[C@@H](C(=O)Nc1ccn(C[C@@H](O)COC(=O)c2cccnc2)n1)N1CC(Oc2ccccc2Cl)=CC1=O [Compound 3] | ≤ 60 min
2 | CC(C)C[C@@H](C(=O)Nc1ccn(C[C@@H](O)COC(=O)[C@@H](N)C(C)C)n1)N1CC(Oc2ccccc2Cl)=CC1=O [Compound 7] | ≤ 60 min

— US12054477B2, “Prodrug of pyrrolidone derivatives as glucokinase activator” (HUA MEDICINE (SHANGHAI) LTD., priority 2021, dated 2024)
